Data from patent US4337247A (Takeda Chemical Industries, Ltd., priority 1979, dated 1982).

Assay: general procedure: solution-phase peptide synthesis; DCC/HONB or DCC/HOBt; Z-Tyr-ONB active ester

Row | Substance | step yield (late stage modification step) | step yield (coupling step)
1 | BOC-Tyr-(D)-Met(O)-Gly-MePhe-NHNHCONH2 | 88% | 
2 | BOC-Tyr-(D)-Met-Gly-MePheNHNHCONH2 |  | 31%
3 | Z-Tyr-(D)-Ala-Gly-MePhe-NHNHCONH2 |  | 45.2%
